Experimental data: PubChem BioAssay AID624297 (National Center for Advancing Translational Sciences (NCATS), 2012)
Where “and” joins values, the source holds several entries; their conditions need not be identical. Identical values can stand only once. Screen size: about 340,000 compounds; about 6,200 (1.8%) were called active. The inconclusive results got no clear call from the source; some entries with a clear call stand among them for comparison. Calls come from the whole dose curve; as a rule, active = well fitted activation curve with a large enough effect; inconclusive = small, poorly fitted or top-dose-only effect; inactive = no such curve, though single readings can be large or run the other way. Potencies of inconclusive entries are doubtful fits and often do not repeat.

assay: A quantitative high throughput screen for small molecules that induce DNA re-replication in SW480 colon adenocarcinoma cells.; note: nearly all actives have a fitted effect of over 55% in size; for re-replication activation: % of control where 0% means no effect; conditions: Hoechst DNA content imaging, 48 h; re-replication activation: at 46.1 µM (top of the series) unless noted
How it was run: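 DNA re-replication was detected as more nuclei of elevated Hoechst intensity after 48 hr exposure to compound (23 nL pinned per well of 250 cells).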
Potency is the fitted concentration of half-maximal effect.

| Structure (SMILES) | Potency | re-replication activation |
| --- | --- | --- |
| Cn1c(CNC(=O)CNS(=O)(=O)c2ccccc2)cc(=O)n(C)c1=O | inconclusive: 4.11 µM [activator, full curve, poor fit] | – |
| CC(=O)N1CCc2cc(S(=O)(=O)NC(Cc3ccccc3)C(=O)NCCN3CCCCC3C)ccc21 (centres undefined) | inconclusive: 29.1 µM [activator, single point] | – |
| Nc1nc(-c2ccccc2)c(N=Nc2cccc3ccccc23)s1 | inconclusive: 29.1 µM [activator, single point] | – |
| O=C(O)/C=C/c1ccc([N+](=O)[O-])o1 | inconclusive: 20.6 µM [activator, single point] | – |
| O=C(NC1CCCCC1)c1sc(N2CCOCC2)nc1-c1ccccc1 | – | inactive: 0.306% |
| O=C(CSC1=NC2(CCCCC2)N=C1c1ccccc1)Nc1ccc2c(c1)OCCO2 | inconclusive: 29.1 µM [activator, single point] | – |
| CSc1ccccc1C(=O)NCCSC(C)(C)C | – | inactive: -1.85% |
| Cc1cc2cc(CN(Cc3nnnn3C3CCCCC3)CC3CCCO3)c(=O)[nH]c2cc1C (centres undefined) | – | inactive: 13% |
| Cc1ccccc1-c1nsc(SCC(=O)Nc2ccc3c(c2)OCO3)n1 | inconclusive: 29.1 µM [activator, partial curve, poor fit] | – |
| CCOC(=O)c1cnn2c(C(F)(F)F)cc(-c3ccccc3)nc12 | – | inactive: 0.418% |
| CN(C)c1nc(Nc2ccc(Cl)c(Cl)c2)nc(N(C)C)n1 | active: 23.1 µM | – |
| O=C1c2ccccc2C2(c3ccccc3)N1CCN2C(=O)C(Cl)(Cl)Cl (centres undefined) | inconclusive: 18.4 µM [activator, single point] | – |
| O=C(Nc1cccc(C(=O)N2CCN(Cc3ccccc3)CC2)c1)c1ccccc1 | inconclusive: 3.98 µM [activator, single point] | – |
| CCn1c(CSc2nc3ccccc3s2)nnc1SCC(=O)c1ccc(Cl)cc1 | inconclusive: 20.6 µM [activator, single point] | – |
| Cc1ccc(-n2nc(C)c(NC(=O)CCl)c2C)cc1 | inconclusive: 18.4 µM [activator, single point] | – |
| CC1CC(C)(C)NC(=S)N1CCCC(=O)Nc1ccc(Br)cc1 (centres undefined) | – | inactive: -8.41% |
| COc1cc(CNCCO)cc(Cl)c1OCc1ccc(Cl)cc1Cl | inconclusive: 29.1 µM [activator, single point] | – |
| CC(C)NC(=O)c1ccc2c(c1)N(CC(=O)Nc1ccccc1F)C(=O)C(C)(C)O2 | – | inactive: -1.21% |
| CCCCC1=CC2=C(c3ccco3)C(=O)C(C)(OC(=O)c3ccc(OC)cc3)C(=O)C2=CN1CC(C)C (centres undefined) | inconclusive: 23.1 µM [activator, partial curve, poor fit] | – |
| CCOC(=O)c1c(NC(=O)COc2ccccc2C#N)sc2c1CC(C)(C)NC2(C)C | active: 18.4 µM | – |
| COc1ccc(OC)c(/C=C/C(=O)OCC(=O)NCc2ccccc2)c1 | – | inactive: 0.811% |
| COc1cc(/C=C/C(=O)c2cccc([N+](=O)[O-])c2)cc(OC)c1OC | inconclusive: 29.1 µM [activator, single point] | – |
| COc1ccc2c(c1OC)C(=O)O[C@@H]2[C@H]1c2c(cc3c(c2OC)OCO3)CCN1C | inconclusive: 23.1 µM [activator, partial curve, poor fit] and inconclusive: 29.1 µM [activator, single point] | – |

| Structure (SMILES) | Potency | re-replication activation |
| --- | --- | --- |
| CC1(C(=O)N/N=C/c2ccc([N+](=O)[O-])o2)CC1(Br)Br (centres undefined) | active: 4.61 µM | – |
| Cc1noc(C)c1CN(C(=S)NC1CC2CCC1C2)c1ccccc1 (centres undefined) | – | inactive: 0.254% |
| COC(=O)C1(C)NC(c2ccc(Cl)cc2)C2C(=O)N(c3ccccc3)C(=O)C21 (centres undefined) | inconclusive: 6.51 µM [activator, single point] | – |
| Cc1ccc(S(=O)(=O)n2cnc3ccccc32)cc1[N+](=O)[O-] | – | inactive: 2.92% |
| COc1cc(CC(=O)Nc2nc(-c3ccc(F)c(F)c3)cs2)cc(OC)c1OC | inconclusive: 29.1 µM [activator, single point] | – |
| COc1ccc(-c2cc(C(F)(F)F)nc(S(=O)(=O)CCCC(=O)Nc3cccc(O)c3)n2)cc1OC | inconclusive: 0.517 µM [activator, full curve, poor fit] | – |
| O=C(CCC(=O)N1CCN(c2ccccc2)CC1)Nc1nnc(C2CCCCC2)s1 | – | inactive: -19.1% |
| COc1cc(NC(=O)c2cc(-c3cccs3)on2)cc(OC)c1OC | inconclusive: 18.4 µM [activator, single point] | – |
| Cc1cccc(C(O)(C(=O)NNc2ccc3ccccc3n2)c2cccc(C)c2)c1 | inconclusive: 29.1 µM [activator, single point] | – |
| COCCN(C(=O)Nc1ccccc1OC)c1nc2ccccc2s1 | – | inactive: 2.3% |
| COc1ccc(-c2csc(N3CCN(C(=O)c4ccccc4)CC3)n2)cc1 | – | inactive: -5.91% |
| CCCn1c(SCC(=O)NC2CCCC2)nc2c1c(=O)n(C)c(=O)n2C | – | inactive: 1.36% |
| Cc1ccc(C(=O)N/C(=C\c2cn(C)c3ccccc23)C(=O)NCCN2CCOCC2)cc1 | – | inactive: -20.1% |
| O=C(COC(=O)[C@@H]1CCCN1S(=O)(=O)c1ccc(Cl)cc1)NC1CCS(=O)(=O)C1 (some centres undefined) | inconclusive: 29.1 µM [activator, partial curve, poor fit] | – |
| Nc1c(C(=O)Nc2ccc(Cl)c(C(=O)O)c2)sc2nc3c(cc12)CCCC3 | inconclusive: 32.6 µM [activator, partial curve, poor fit] | – |
| Cc1ccc(OCC(O)Cn2c(N3CCCCC3)nc3c2c(=O)[nH]c(=O)n3C)cc1C (centres undefined) | – | inconclusive: 47.6% [activator] |
| O=C(c1cc(F)c(F)c(F)c1F)N1CCN(Cc2ccc3c(c2)OCO3)CC1 | – | inactive: -15% |
| CCC(=O)NC(=S)Nc1ccc(NC(=O)COc2ccc(Cl)cc2Cl)cc1 | – | inactive: 1.92% |
| COc1cc(OC)cc(C(=O)OC/C(O)=C(\C#N)c2nc3ccccc3[nH]2)c1 | inconclusive: 18.4 µM [activator, single point] | – |
| CCN(CC)C(=O)CCSc1nnc(-c2ccco2)o1 | inconclusive: 25.9 µM [activator, single point] | – |
| COc1ccc(CN(C(=O)/C=C/c2ccco2)C2CCS(=O)(=O)C2)cc1OC (centres undefined) | inconclusive: 14.6 µM [activator, partial curve, poor fit] | – |
| Cc1cccc2sc(NNC(=O)c3ccc(S(=O)(=O)N4CC(C)CC(C)C4)cc3)nc12 (centres undefined) | active: 9.2 µM | – |
| Cc1cc(C)cc(OCCNC(=O)c2ccc(Br)cc2)c1 | inconclusive: 29.1 µM [activator, single point] | – |

| Structure (SMILES) | Potency | re-replication activation |
| --- | --- | --- |
| COc1ccc(-c2ccc(-c3noc(-c4ccco4)n3)c(OC)n2)cc1 | inconclusive: 20.6 µM [activator, partial curve, poor fit] | – |
| O=C(Nc1ccc(F)cc1)Nc1ccc(N2CCCC2)c(S(=O)(=O)Nc2ccccc2Cl)c1 | inconclusive: 29.1 µM [activator, single point] | – |
| O=[N+]([O-])c1ccc(N2CCNCC2)cc1Sc1nc2ccccc2[nH]1 | active: 16.4 µM | – |
| CC(Oc1ccccc1)C(=O)NC1CCN(Cc2ccccc2)CC1 (centres undefined) | – | inactive: -14.4% |
| O=C(Cn1nc2sc3ccccc3n2c(=O)c1=O)c1ccc(Cl)cc1 | inconclusive: 4.61 µM [activator, full curve, poor fit] | – |
| O=C(c1ccccc1)N1CCN(c2ccc(NCc3ccc4c(c3)OCO4)cc2)CC1 | – | inactive: 9.38% |
| O=C1CCCCC1Nc1ccc(Br)cc1 (centres undefined) | – | inactive: 0.454% |
| Cc1ccccc1-c1nc(CN2CCC(C(=O)NCCC3=CCCCC3)CC2)c(C)o1 | inconclusive: 16.4 µM [activator, single point] | – |
| COc1cc([N+](=O)[O-])cc(/C=N/NC(=O)c2cccnc2)c1O | inconclusive: 20.6 µM [activator, single point] | – |
| Cc1cccc(N(CC(=O)NC2CCCCC2)C(=O)CCCC(=O)Nc2ccccn2)c1 | inconclusive: 23.1 µM [activator, single point] | – |
| Cc1nc2cc(C(=O)N3c4ccccc4CC3C)ccc2s1 (centres undefined) | inconclusive: 23.1 µM [activator, single point] | – |
| CC(C)C[C@H](CO)Nc1nc(Nc2cccc(Cl)c2)c2ncn(C(C)C)c2n1 | inconclusive: 29.1 µM [activator, single point] | – |
| COc1cc2c(C(=O)Nc3ccccc3F)cn(C)c(=O)c2cc1OC | – | inactive: -4.2% |
| Cc1nc(NC(=O)c2ccccc2)sc1Cc1ccc2c(c1)OCO2 | active: 25.9 µM | – |
| COc1ccc(-c2nn(-c3ccccc3)cc2C(=O)NC2CCCCC2C)cc1 (centres undefined) | inconclusive: 5.8 µM [activator, single point] | – |
| CCC(=O)N1CCc2cc(Br)cc(S(=O)(=O)N3CCC(C(=O)NCCCOC(C)C)CC3)c21 | inconclusive: 14.6 µM [activator, partial curve, poor fit] | – |
| CCc1n[nH]c(=S)n1/N=C/c1ccc(N(CC)CC)cc1 | – | inactive: -1.76% |
| CC1CCN(S(=O)(=O)c2cn(CC(=O)N3CC(C)CC(C)C3)c(=O)c3ccccc23)CC1 (centres undefined) | – | inactive: -2.34% |
| O=C(NCc1cccnc1)c1ccc(Br)s1 | inconclusive: 29.1 µM [activator, single point] | – |
| Cc1cccc(N(CC(=O)NCc2ccccc2)C(=O)CCC(=O)Nc2nccs2)c1 | inconclusive: 14.6 µM [activator, partial curve, poor fit] | – |
| Cc1ccn2c(=O)c(C(=O)O)cnc2c1 | inconclusive: 2.91 µM [activator, single point] | – |
| COc1ccccc1CCNC(=O)C(=O)NCC1OCCN1S(=O)(=O)c1ccc([N+](=O)[O-])cc1 (centres undefined) | inconclusive: 18.4 µM [activator, single point] | – |
| Cc1cc(C)c2sc(N(CCCN(C)C)C(=O)c3ccc(Br)s3)nc2c1 | inconclusive: 23.1 µM [activator, single point] | – |
